{
  "source": "patent US4292319A",
  "about": "“Antiphlogistic pharmaceutical compositions and method of use” (Boehringer Ingelheim GmbH, priority 1977, dated 1981)",
  "key": {"[1]": {"tested_on": "stomach of the rat", "assay": "Test for ulcerogenic effect on the stomach of the rat", "format": "in vivo, rat (Chbb:THOM)", "settings": "oral, 3 subsequent days", "description": "(§1) (1) Test for ulcerogenic effect on the stomach of the rat\n(§2) The test was carried out on male and female (1:1) Chbb:THOM-rats with a body weight between 130 to 150 gm at the beginning of the study.\n(§3) The test substances (non-steroidal anti-phlogistics or mixtures of these antiphlogistics with pirenzepine dihydrochloride) were administered as triturations in 1% tylose (1 ml/100 gm animal) by way of an esophageal tube once a day on three successive days.\n(§4) Four hours after the last administration (i.e. on the 3rd day) the animals were killed by an over-dose of ether. The stomachs wer dissected, cut along the great curvature and washed under flowing water for subsequent macroscopic evaluation."}, "[2]": {"assay": "Test for ulcerogenic effect on the stomach of the rat", "format": "in vivo, rat (Chbb:THOM)", "settings": "in vivo, po, 3 subsequent days, read-out: ED50-ulcer", "description": "as §1, §2, §3, §4"}},
  "note": "Where two headings read alike, the source gives them in different places.",
  "data": [
    {"smiles": "COc1ccc2cc([C@H](C)C(=O)O)ccc2c1", "note": "[F, d-2-(6-methoxy-2-naphthyl)-propionic acid]", "values": [
      {"measurement": "Ratio of animals with ulcers", "setting": "[1]; antiphlogistic 1.25 mgm/kg + A 200 mgm/kg", "result": "1/20"},
      {"measurement": "Ratio of animals with ulcers", "setting": "[1]; antiphlogistic 1.25 mgm/kg + A 400 mgm/kg", "result": "1/20"},
      {"measurement": "Ratio of animals with ulcers", "setting": "[1]; antiphlogistic 1.25 mgm/kg, without A", "result": "2/19"},
      {"measurement": "Ratio of animals with ulcers", "setting": "[1]; antiphlogistic 2.5 mgm/kg + A 200 mgm/kg", "result": "4/20"},
      {"measurement": "Ratio of animals with ulcers", "setting": "[1]; antiphlogistic 2.5 mgm/kg + A 400 mgm/kg", "result": "0/20"},
      {"measurement": "Ratio of animals with ulcers", "setting": "[1]; antiphlogistic 2.5 mgm/kg, without A", "result": "4/19"},
      {"measurement": "Ratio of animals with ulcers", "setting": "[1]; antiphlogistic 5.0 mgm/kg + A 200 mgm/kg", "result": "6/20"},
      {"measurement": "Ratio of animals with ulcers", "setting": "[1]; antiphlogistic 5.0 mgm/kg + A 400 mgm/kg", "result": "5/20"},
      {"measurement": "Ratio of animals with ulcers", "setting": "[1]; antiphlogistic 5.0 mgm/kg, without A", "result": "15/19"},
      {"measurement": "Ratio of animals with ulcers", "setting": "[1]; antiphlogistic 10.0 mgm/kg + A 200 mgm/kg", "result": "10/20"},
      {"measurement": "Ratio of animals with ulcers", "setting": "[1]; antiphlogistic 10.0 mgm/kg + A 400 mgm/kg", "result": "10/20"},
      {"measurement": "Ratio of animals with ulcers", "setting": "[1]; antiphlogistic 10.0 mgm/kg, without A", "result": "16/19"},
      {"measurement": "Ratio of animals with ulcers", "setting": "[1]; antiphlogistic 20.0 mgm/kg + A 200 mgm/kg", "result": "17/20"},
      {"measurement": "Ratio of animals with ulcers", "setting": "[1]; antiphlogistic 20.0 mgm/kg + A 400 mgm/kg", "result": "14/20"},
      {"measurement": "TD50", "setting": "[2]; with A 200 mgm/kg", "result": 7.9, "unit": "mg/kg"},
      {"measurement": "TD50", "setting": "[2]; with A 400 mgm/kg", "result": 10.4, "unit": "mg/kg"},
      {"measurement": "TD50", "setting": "[2]; without A", "result": 3.6, "unit": "mg/kg"}
    ]}
  ]
}
